The assay has as its target Myc-tagged RPL12 (Ribosomal Protein L12) (D. melanogaster). Description: co-IP; S2 cells co-transfected with FLAG-tagged Corto constructs and Myc-tagged ribosomal proteins; cell extracts; immunoprecipitation with anti-FLAG or anti-Myc, Western blot with the same antibodies.

Results are given in words; binding and its absence hold for the method and conditions named. In cells and extracts the contact can be indirect. A result given as binding can be weak or reduced; the word gives no strength. Where a sequence is shown, tags or fusion partners need not be part of it.

B1: FLAG-tagged full-length Corto (protein, UniProt P41046 1-550)
chain: MTMAACYANYDMSSLSHGMSALSALQQQQQQQQQQHSQTQQQHHHQQQQQHMYHAAVAAHQQQLLQQQQQQQHHRHHHQPANTSSSSNSRHSHAAATQTQVAAAVANSRQQQQQQQQQQQQQQQQQTASSNSNAAPAPSPQKDYSIPLHVDCSVEYELPNQPKPPAGQRVEPLLMIHPCYFRKMESQRRSPFVNNMHATARAVSSSSLSSGAALGGGGSGAAVATAPSSSAARRGARAATSAQQQQQQQQRYQQQQQQLRQQHQQMSQMSQQAHYPQQQSSLVRQHQQQQQQQQQQQRASSNQSQRQSQSQSQSQSHAANSAAAAAAQASIAAAAAGQWDQLAALAARTALTPHHMLHPHSHYAAKGSGGGAGGGKRDAMISGSYGQTAVASGKLQQSQVQQQQPQQQQQHCLPPPPWDATSMLMDRSPMATVPSNYQAGPDTNPMRLYSATPTAGAASGGSASVGGGGAVSGAGATGAVNTATDKLSGKYRQYLRSQRMHPYAAAASLNLAAAAAAAGQTSFVPFSSAATAVAATPTFQHLPQISCYNV
Consider B1, for which the binding result is “binds”.
